Laboratory results as given in PubChem BioAssay AID493014 (National Center for Advancing Translational Sciences (NCATS), 2011).
The campaign covered roughly 340,000 compounds. About 170 (0.05%) were called active. The shares of active, inactive and inconclusive entries below differ from those in the screen. Calls follow the shape of the dose curve; as a rule, active = well fitted inhibition curve with a large enough effect in the signal ratio, with a control signal flat (not every such curve was filed as active); inconclusive = small, poorly fitted or top-dose-only effect, or effect the other way, or a change in a side signal; inactive = flat fitted curve, though single readings scatter; the % refers to the signal ratio. A potency beside an inconclusive call is a rough fit, not a confirmed value.

assay: qHTS Assay to Find Inhibitors of Chronic Active B-Cell Receptor Signaling; settings: ABC-DLBCL IkBa-CBG/CBR reporter, luminescence ratio (green luciferase fused to IkBa over red control in TMD8 lymphoma cells), 4 h; activity change, negative = inhibition: at 46.1 µM (top of the series) unless noted;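 as to activity change, negative = inhibition: plate controls were basal doxycycline-induced cells for no effect and cells given 10 µM MG132 for full effect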
In short: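 TMD8 human ABC-DLBCL cells with doxycycline-inducible IκBα–green luciferase fusion and unfused red luciferase, in 0.5% FBS medium; compounds up to 46 uM, 4 h at 37C. Green/red luminescence ratio, filter-overlap corrected, fitted to concentration-response curves.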
Potency is read from the fitted curve at half-maximal effect.

**Q.** For `O=C(NNc1ncnc2c1cnn2-c1ccccc1)c1cccs1`, which activity change, negative = inhibition is on record?
**A.** Its activity change, negative = inhibition is inconclusive: 26.5%.

**Q.** With `COc1ccc(Cl)cc1S(=O)(=O)N1CCCC(C(=O)N2CCOCC2)C1` (stereo not given) as the molecule, how does the activity change, negative = inhibition read?
**A.** The activity change, negative = inhibition was inconclusive: -7.82%.

**Q.** With `CC(=O)n1c2c(c3ccccc31)OC(N)=C(C#N)C2c1cccc(Cl)c1Cl` (stereo not given) as the molecule, how does the activity change, negative = inhibition read?
**A.** Its activity change, negative = inhibition is inconclusive: -20.6%.

**Q.** With `COc1ccccc1CC(=O)N1CCN(S(=O)(=O)c2ccccc2F)CC1` as the molecule, how does the “activity change, negative = inhibition” value read?
**A.** The value was inactive: -0.482%.

**Q.** With `COc1ccc(CN2CCN(c3ccccc3OC)CC2)c(OC)c1` as the molecule, how does the “activity change, negative = inhibition” value read?
**A.** Its value is inactive: -0.747%.

**Q.** For `Cc1cccn2cc(-c3cc4ccccc4oc3=O)nc12`, which Potency is on record?
**A.** The Potency was inconclusive: 14.1 µM [falling, single point].

**Q.** Which activity change, negative = inhibition does the source give for `NNC(=O)CN1C(CN2CCOCC2)=Nc2ccc(Br)cc2C1c1ccccc1` (stereo not given) here?
**A.** Its activity change, negative = inhibition is inconclusive: 5.43%.

**Q.** For `CCOc1ccc(-c2cc(C(=O)N3CCN(c4ccc(C)cc4)C(C)C3)c3ccccc3n2)cc1` (stereo not given), which “activity change, negative = inhibition” value is on record?
**A.** The value was inactive: 8.01%.

**Q.** With `c1ccc2c(c1)ncn2-c1ncnc2sc3c(c12)CCCC3` as the molecule, how does the “activity change, negative = inhibition” value read?
**A.** Its value is inactive: -7.51%.

**Q.** Which activity change, negative = inhibition does the source give for `CN(NS(=O)(=O)c1ccc(Cl)cc1)c1ncc(C(F)(F)F)cc1Cl` here?
**A.** The activity change, negative = inhibition was inconclusive: -8.44%.

**Q.** Which activity change, negative = inhibition does the source give for `CC(C)c1ccc(N=C2N=C(N)c3ccccc32)cc1` here?
**A.** The activity change, negative = inhibition was inconclusive: 12.1%.

**Q.** With `CN(C)[C@@H]1CCC[C@H]1OC(=O)C(c1ccccc1)c1ccccc1` as the molecule, how does the “activity change, negative = inhibition” value read?
**A.** The value was inactive: 0.0258%.

**Q.** Which activity change, negative = inhibition does the source give for `Cc1ccccc1NC(=O)c1c(O)c2cccc3c2n(c1=O)CC3` here?
**A.** Its activity change, negative = inhibition is inconclusive: -0.98%.

**Q.** Which “activity change, negative = inhibition” value does the source give for `COC(=O)c1c(C)[nH]c(C(=O)CSc2ncnc3sc(-c4ccccc4)cc23)c1C` here?
**A.** The value was inactive: 6.48%.

**Q.** For `COc1ccc(OC)c(NC(=O)CC2C(=O)NCCN2C(=O)Nc2cccc(Cl)c2)c1` (stereo not given), which Potency is on record?
**A.** Its Potency is inconclusive: 0.92 µM [falling, full curve, poor fit].

**Q.** With `COc1ccccc1N(C(C)=O)C1SC(=O)N(c2ccccc2)C1=O` (stereo not given) as the molecule, how does the Potency read?
**A.** Its Potency is inconclusive: 14.1 µM [falling, single point].

**Q.** With `Cc1ccc(N(C(=O)Cn2nnc3ccccc32)C(C(=O)NCc2ccccc2)c2ccccn2)cc1` (stereo not given) as the molecule, how does the Potency read?
**A.** The Potency was inconclusive: 14.6 µM [falling, partial curve].

**Q.** Which Potency does the source give for `O=C(Nc1cccc(N=Cc2cc(Cl)cc(Br)c2O)c1)c1ccco1` here?
**A.** Its Potency is inconclusive: 6.51 µM [falling, partial curve].

**Q.** For `C/C(=N/NC(=O)Cn1nc2ccccc2n1)c1ccc(F)cc1`, which activity change, negative = inhibition is on record?
**A.** Its activity change, negative = inhibition is inconclusive: 6.41%.

**Q.** Which activity change, negative = inhibition does the source give for `Cc1cccc(CSc2nc3c(c(-c4cccs4)c2C#N)CN(C)CC3)c1` here?
**A.** The activity change, negative = inhibition was inconclusive: 8.85%.

**Q.** With `Cc1ccc(NC(=O)c2cccs2)cc1NC(=O)c1ccco1` as the molecule, how does the Potency read?
**A.** The Potency was inconclusive: 20.6 µM [falling, partial curve].

**Q.** For `CC(C)c1nc(SCC(=O)N2c3ccccc3CC2C)c2ccccc2n1` (stereo not given), which activity change, negative = inhibition is on record?
**A.** The activity change, negative = inhibition was inconclusive: 1.3%.

**Q.** Which Potency does the source give for `COc1cccc(C(=O)Nc2nnc(SCC(=O)Nc3ccc(NC(C)=O)cc3)s2)c1` here?
**A.** Its Potency is inconclusive: 11.2 µM [falling, partial curve].

**Q.** For `CCN(CC)CCC(=O)N1c2ccccc2Sc2ccc(Cl)cc21`, which activity change, negative = inhibition is on record?
**A.** Its activity change, negative = inhibition is inconclusive: -17.3%.

**Q.** Which Potency does the source give for `N#Cc1c(N(CCO)CCO)nc(N)c2c(N)nc3c(c12)CC(=O)N3Cc1cccs1` here?
**A.** Its Potency is inconclusive: 0.316 µM [falling, partial curve, poor fit].

**Q.** Which activity change, negative = inhibition does the source give for `CCCN(CC(=O)Nc1ccccc1C)C(=O)C1CCN(C(=O)Nc2ccccc2)CC1` here?
**A.** Its activity change, negative = inhibition is inconclusive: -0.237%.

**Q.** For `CC(OC(=O)CCc1nc2ccccc2c(=O)[nH]1)C(=O)c1ccc(C(C)(C)C)cc1` (stereo not given), which activity change, negative = inhibition is on record?
**A.** Its activity change, negative = inhibition is inconclusive: 0.174%.

**Q.** With `Cc1cccc(C)c1NC(=O)c1cc2c(=O)c3ccccc3oc2nc1C(F)(F)F` as the molecule, how does the activity change, negative = inhibition read?
**A.** Its activity change, negative = inhibition is inconclusive: 2.16%.

**Q.** Which activity change, negative = inhibition does the source give for `Cc1nn(-c2ccccc2)c(Cl)c1C(=O)NCC(C)C` here?
**A.** The activity change, negative = inhibition was inconclusive: 20.9%.

**Q.** Which Potency does the source give for `COc1cc(/C=N/NC(=O)c2ccc(O)cc2)ccc1OCC(=O)Nc1cccc([N+](=O)[O-])c1` here?
**A.** Its Potency is inconclusive: 8.91 µM [falling, partial curve].

**Q.** For `CC1=C(C(=O)OC(C)C)C(c2ccc(N(C)C)cc2)C2=C(CC(C)(C)CC2=O)N1` (stereo not given), which activity change, negative = inhibition is on record?
**A.** The activity change, negative = inhibition was inconclusive: 2.86%.

**Q.** With `C[C@@H]1CCC[C@H](C)N1NC(=O)c1ccc(Cl)c(S(N)(=O)=O)c1` as the molecule, how does the activity change, negative = inhibition read?
**A.** Its activity change, negative = inhibition is inconclusive: 0.954%.

**Q.** Which “activity change, negative = inhibition” value does the source give for `Cc1ccc(S(=O)(=O)NCC(=O)Nc2ccc(C(F)(F)F)cc2)cc1` here?
**A.** The value was inactive: 0.352%.

**Q.** Which “activity change, negative = inhibition” value does the source give for `CN1C(=S)SC(N(O)C(=O)Nc2cccc3ccccc23)C1(C)C` (stereo not given) here?
**A.** Its value is inactive: -10.5%.

**Q.** With `Cc1ccc(C(=O)NCC(=O)OC(C)C(=O)Nc2ccc(N(C)C)cc2)cc1C` (stereo not given) as the molecule, how does the activity change, negative = inhibition read?
**A.** Its activity change, negative = inhibition is inconclusive: -12%.

**Q.** With `N#Cc1c(N)n(-c2ccccc2N)c2nc3ccccc3nc12` as the molecule, how does the activity change, negative = inhibition read?
**A.** The activity change, negative = inhibition was inconclusive: -0.094%.

**Q.** Which “activity change, negative = inhibition” value does the source give for `OC1(c2ccc(Br)cc2)CCN(Cc2cccc(Br)c2)CC1` here?
**A.** Its value is inactive: 4.87%.

**Q.** With `O=C(Nc1nc2cc3c(cc2s1)OCO3)c1cccc(N2C(=O)CCC2=O)c1` as the molecule, how does the activity change, negative = inhibition read?
**A.** Its activity change, negative = inhibition is inconclusive: -15.3%.

**Q.** Which activity change, negative = inhibition does the source give for `CCN(CC)S(=O)(=O)c1cccc(C(=O)OCC(=O)NC(C)c2ccccc2)c1` (stereo not given) here?
**A.** The activity change, negative = inhibition was inconclusive: 11.8%.

**Q.** Which activity change, negative = inhibition does the source give for `Clc1cccc2sc(N3CCN(c4ccccc4)CC3)nc12` here?
**A.** The activity change, negative = inhibition was inconclusive: -3.87%.

**Q.** For `O=C(CCc1ccccc1)NCc1ccc2c(c1)CCN2C(=O)c1ccc(Cl)cc1`, which Potency is on record?
**A.** The Potency was inconclusive: 3.98 µM [falling, single point].

**Q.** Which activity change, negative = inhibition does the source give for `O=C(c1ccc(CNc2c(N3CCCC3)c(=O)c2=O)cc1)N1CC=C(c2ccccc2)CC1` here?
**A.** The activity change, negative = inhibition was inconclusive: -24.2%.

**Q.** For `CC(C)CC(NC(=O)C1CCC(C)CC1)C(=O)Nc1ccc2c(c1)OCCO2` (stereo not given), which activity change, negative = inhibition is on record?
**A.** The activity change, negative = inhibition was inconclusive: 9.54%.

**Q.** With `Cc1ccc(S(=O)(=O)Oc2ccc(/C=C3/N=C(c4ccccc4)OC3=O)cc2)cc1` as the molecule, how does the “activity change, negative = inhibition” value read?
**A.** The value was inactive: 0.867%.

**Q.** For `Cn1cccc1/C=N/NC(=O)CSc1nc2ccccc2[nH]1`, which Potency is on record?
**A.** The Potency was inconclusive: 0.1 µM [falling, full curve, poor fit].

**Q.** For `COc1cc(OC)c(OC)cc1/C=N/NC(=O)CCc1c(C)n[nH]c1C`, which Potency is on record?
**A.** Its Potency is inconclusive: 17.8 µM [falling, partial curve, poor fit].

**Q.** Which “activity change, negative = inhibition” value does the source give for `COCCCN1CC(=O)N2C(c3ccccc3)c3[nH]c4ccccc4c3C[C@H]2C1=O` (stereo not given in full) here?
**A.** Its value is inactive: -5.19%.

**Q.** Which activity change, negative = inhibition does the source give for `Cc1ccc(S(=O)(=O)Nc2ccc3c(c2)c2c(n3S(=O)(=O)c3ccc(C)cc3)CCCC2=O)cc1` here?
**A.** The activity change, negative = inhibition was inconclusive: 7.17%.

**Q.** Which activity change, negative = inhibition does the source give for `COc1ccc(C(C)=O)cc1COc1ccc(Cl)c(C)c1` here?
**A.** The activity change, negative = inhibition was inconclusive: 28.8%.

**Q.** With `Cc1ncc(S(=O)(=O)c2ccccc2)c(-c2ccc(Cl)cc2Cl)n1` as the molecule, how does the “activity change, negative = inhibition” value read?
**A.** The value was inactive: 6.27%.
